The target in assay [1] is GATA6 (human (endogenous in HPAF-II, AsPC-1, Miapaca-2)) (UniProt Q92908). Put plainly: affinity purification with mass spectrometry; RIME of endogenous GATA6 as bait in cross-linked AsPC-1 cells (DSG and formaldehyde, sonicated chromatin), LC-MS/MS.
In assay [2] the target is GATA6 (human (endogenous in HPAF-II, AsPC-1, Miapaca-2)), Q92908. The assay is described as above. The settings on record: remark: other sources report otherwise.
Assay [3] concerns the target T1, FOXA1 (human (endogenous in HPAF-II, AsPC-1, Miapaca-2)) (UniProt P55317).
T1 sequence: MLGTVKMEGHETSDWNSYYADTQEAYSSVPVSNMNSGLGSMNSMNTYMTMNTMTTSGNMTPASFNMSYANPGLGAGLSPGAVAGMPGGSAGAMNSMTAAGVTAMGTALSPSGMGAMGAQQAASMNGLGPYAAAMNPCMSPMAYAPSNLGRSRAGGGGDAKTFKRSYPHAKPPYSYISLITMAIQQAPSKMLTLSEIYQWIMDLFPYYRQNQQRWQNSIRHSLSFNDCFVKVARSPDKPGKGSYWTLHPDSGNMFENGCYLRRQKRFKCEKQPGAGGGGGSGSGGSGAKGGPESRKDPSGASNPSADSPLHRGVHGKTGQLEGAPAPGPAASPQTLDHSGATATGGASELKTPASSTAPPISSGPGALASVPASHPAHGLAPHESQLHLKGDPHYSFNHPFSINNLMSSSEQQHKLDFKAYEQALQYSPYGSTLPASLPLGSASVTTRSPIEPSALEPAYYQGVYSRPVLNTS
Nature of the assay: affinity purification with mass spectrometry; RIME: cells cross-linked with 2 mM DSG and 1% formaldehyde, chromatin sonicated, endogenous FOXA1 immunoprecipitated overnight (Abcam ab5089 on Dynabeads), ten washes in RIPA buffer, LC-MS/MS, label-free quantification; HPAF-II, AsPC-1 and Miapaca-2 cells; three biological replicates and one pooled IgG control.

Amino acid sequences for entries named in this document (tags omitted).
UniProt Q92908: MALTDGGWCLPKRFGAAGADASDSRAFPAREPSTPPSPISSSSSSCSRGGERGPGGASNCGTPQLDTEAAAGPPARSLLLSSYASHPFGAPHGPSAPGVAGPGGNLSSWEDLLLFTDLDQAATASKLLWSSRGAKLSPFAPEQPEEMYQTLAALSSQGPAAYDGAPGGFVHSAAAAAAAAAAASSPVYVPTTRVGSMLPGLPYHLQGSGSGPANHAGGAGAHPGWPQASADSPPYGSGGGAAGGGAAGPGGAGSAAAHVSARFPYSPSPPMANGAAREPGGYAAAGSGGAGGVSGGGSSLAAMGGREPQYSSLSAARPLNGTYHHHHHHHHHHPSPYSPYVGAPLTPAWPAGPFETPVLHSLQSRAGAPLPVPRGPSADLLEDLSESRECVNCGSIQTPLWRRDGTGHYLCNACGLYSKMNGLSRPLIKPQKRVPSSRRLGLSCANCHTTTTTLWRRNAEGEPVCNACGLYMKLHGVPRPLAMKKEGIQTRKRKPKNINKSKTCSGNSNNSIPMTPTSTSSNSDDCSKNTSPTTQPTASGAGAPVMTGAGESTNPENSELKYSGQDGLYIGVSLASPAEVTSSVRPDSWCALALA

These are yes or no findings as the source states them, for the method shown. In cells and extracts the contact can be indirect. A yes stands for co-enrichment or nearness to the bait. Other partners may have been found.

B1: FOXA1 (protein, UniProt P55317 1-472)
chain: MLGTVKMEGHETSDWNSYYADTQEAYSSVPVSNMNSGLGSMNSMNTYMTMNTMTTSGNMTPASFNMSYANPGLGAGLSPGAVAGMPGGSAGAMNSMTAAGVTAMGTALSPSGMGAMGAQQAASMNGLGPYAAAMNPCMSPMAYAPSNLGRSRAGGGGDAKTFKRSYPHAKPPYSYISLITMAIQQAPSKMLTLSEIYQWIMDLFPYYRQNQQRWQNSIRHSLSFNDCFVKVARSPDKPGKGSYWTLHPDSGNMFENGCYLRRQKRFKCEKQPGAGGGGGSGSGGSGAKGGPESRKDPSGASNPSADSPLHRGVHGKTGQLEGAPAPGPAASPQTLDHSGATATGGASELKTPASSTAPPISSGPGALASVPASHPAHGLAPHESQLHLKGDPHYSFNHPFSINNLMSSSEQQHKLDFKAYEQALQYSPYGSTLPASLPLGSASVTTRSPIEPSALEPAYYQGVYSRPVLNTS
With B1, the binding entry in assay [1] is “binds”.

B2: HNF4G (protein, UniProt Q14541 1-408)
chain: MNTTDNGVNCLCAICGDRATGKHYGASSCDGCKGFFRRSIRKSHVYSCRFSRQCVVDKDKRNQCRYCRLRKCFRAGMKKEAVQNERDRISTRRSTFDGSNIPSINTLAQAEVRSRQISVSSPGSSTDINVKKIASIGDVCESMKQQLLVLVEWAKYIPAFCELPLDDQVALLRAHAGEHLLLGATKRSMMYKDILLLGNNYVIHRNSCEVEISRVANRVLDELVRPFQEIQIDDNEYACLKAIVFFDPDAKGLSDPVKIKNMRFQVQIGLEDYINDRQYDSRGRFGELLLLLPTLQSITWQMIEQIQFVKLFGMVKIDNLLQEMLLGGASNDGSHLHHPMHPHLSQDPLTGQTILLGPMSTLVHADQISTPETPLPSPPQGSGQEQYKIAANQASVISHQHLSKQKQL
Take B2: the binding result in assay [1] is reported as “binds”.

B3: HNF4A, P41235 1-474 (protein)
chain: MRLSKTLVDMDMADYSAALDPAYTTLEFENVQVLTMGNDTSPSEGTNLNAPNSLGVSALCAICGDRATGKHYGASSCDGCKGFFRRSVRKNHMYSCRFSRQCVVDKDKRNQCRYCRLKKCFRAGMKKEAVQNERDRISTRRSSYEDSSLPSINALLQAEVLSRQITSPVSGINGDIRAKKIASIADVCESMKEQLLVLVEWAKYIPAFCELPLDDQVALLRAHAGEHLLLGATKRSMVFKDVLLLGNDYIVPRHCPELAEMSRVSIRILDELVLPFQELQIDDNEYAYLKAIIFFDPDAKGLSDPGKIKRLRSQVQVSLEDYINDRQYDSRGRFGELLLLLPTLQSITWQMIEQIQFIKLFGMAKIDNLLQEMLLGGSPSDAPHAHHPLHPHLMQEHMGTNVIVANTMPTHLSNGQMCEWPRPRGQAATPETPQPSPPGGSGSEPYKLLPGAVATIVKPLSAIPQPTITKQEVI
B3: the binding entry in assay [2] is “binds”.

B4: HNF4A (protein, UniProt P41235 1-474)
chain: MRLSKTLVDMDMADYSAALDPAYTTLEFENVQVLTMGNDTSPSEGTNLNAPNSLGVSALCAICGDRATGKHYGASSCDGCKGFFRRSVRKNHMYSCRFSRQCVVDKDKRNQCRYCRLKKCFRAGMKKEAVQNERDRISTRRSSYEDSSLPSINALLQAEVLSRQITSPVSGINGDIRAKKIASIADVCESMKEQLLVLVEWAKYIPAFCELPLDDQVALLRAHAGEHLLLGATKRSMVFKDVLLLGNDYIVPRHCPELAEMSRVSIRILDELVLPFQELQIDDNEYAYLKAIIFFDPDAKGLSDPGKIKRLRSQVQVSLEDYINDRQYDSRGRFGELLLLLPTLQSITWQMIEQIQFIKLFGMAKIDNLLQEMLLGGSPSDAPHAHHPLHPHLMQEHMGTNVIVANTMPTHLSNGQMCEWPRPRGQAATPETPQPSPPGGSGSEPYKLLPGAVATIVKPLSAIPQPTITKQEVI
With B4, the binding entry in assay [3] is on record as “binds”.

Source of the values: publication PMC12695649.
